# Measured values reported in PubChem BioAssay AID2685 (National Center for Advancing Translational Sciences (NCATS), 2010).
# The list shows a part of the results. Further columns of the screen follow, without active or inactive calls. Compounds called inactive in the main read-out are mostly missing here. Words in brackets tell the shape of the fitted curve; partial curves, single points and poor fits give uncertain potencies. Where a SMILES comes first, the peptide text is derived from it. The star is where a group is joined. Boc = CC(C)(C)OC(=O)*; Bn = c1ccc(C*)cc1; NHNH2 = NN*
# Assay: qHTS Assay for Lipid Storage Modulators in Drosophila S3 Cells;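 for cell number change: cells counted by Cell Tracker Red CMTPX staining in the red channel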
# Conditions: BODIPY lipid droplet fluorescence, 18-24 h; for cell number change: measured here: cell count max response, cells fed with added oleic acid
# Outline: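 Laser-scanning cytometry quantifies lipid droplet accumulation (500–530 nm total intensity; droplet/cell object ratio) in oleic acid-fed (400 uM added) Drosophila S3 cells treated with a concentration series. 20 uM Triacsin C defined 100% inhibition.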
# [1] = measured here: lipid fluorescence (Fed channel) AC50, cells fed with added oleic acid
# [2] = measured here: cell number channel AC50, cells fed with added oleic acid
Structure (SMILES),cell number change [%],AC50 [1],AC50 [2]
COc1ccc(-c2noc(COc3ccc4c(c3)OCO4)n2)cc1OC,-31.9,"23.1 µM [falling, single point]",–
Cc1ccc(CNC(=O)Cn2ccc3cc(S(=O)(=O)N4CCCCCC4)ccc32)cc1,-3.44,"5.17 µM [rising, single point]",–
Cc1cc(NC(=O)CN2CCOCC2)n(-c2nc3ccccc3s2)n1,-15,"1.46 µM [rising, partial curve]",–
CCOC(=O)c1c(NC(=O)Nc2cccc(Cl)c2)sc(C)c1C,9.8,"0.13 µM [rising, full curve, poor fit]","0.517 µM [rising, full curve]"
CS(=O)(=O)c1ccc(Cl)c(NC(=O)CSc2nnc(C3CC3)n2C2CC2)c1,-27.1,"1.84 µM [falling, full curve, poor fit]",–
CCCCNC(=S)N(C)/N=C/c1ccc(OCC(=O)Nc2c(C)cc(C)cc2C)c(OC)c1,4.75,–,–
Cc1ccc(NC(=O)CCN2C(=O)c3ccccc3S2(=O)=O)cc1F,–,"1.46 µM [rising, partial curve]",–
CC1CCCC(C(=O)O)N1C(=O)CCS (stereo unspecified),2.38,"0.058 µM [rising, full curve, poor fit]",–
CC(=O)c1cccc(-n2nnnc2SCC(=O)Nc2cccc(NC(=O)c3ccco3)c2)c1,-5.96,"18.4 µM [falling, partial curve]",–
S=C1NC(c2ccccc2)=CC(c2ccccc2)N1 (stereo unspecified),–,"0.58 µM [rising, single point]",–
C/C(NC(=O)c1cccc(F)c1)=C1/C(=O)C[C@@H]2[C@H]1C2(C)C,–,–,"6.51 µM [rising, partial curve, poor fit]"
Cc1noc(C)c1C(=O)N1CCCC(N2CCN(c3cccc(C(F)(F)F)c3)CC2)C1 (stereo unspecified),-13.9,"0.58 µM [falling, single point]","0.116 µM [rising, full curve, poor fit]"
Cc1ccc2nc(N3C(=O)C(O)=C(C(=O)c4ccco4)C3c3cccs3)sc2c1 (stereo unspecified),10.1,"0.13 µM [falling, full curve, poor fit]",–
O=C(NCCc1ccccc1)c1cc(S(=O)(=O)N2CCOCC2)ccc1F,12.8,–,–
COc1cccc(NC(=S)N(CCCN2CCCC(C)C2)Cc2cccs2)c1 (stereo unspecified),57.9,"11.6 µM [rising, partial curve]",–
Cc1ccccc1NC(=O)NC1(C(=O)N2CCC(C(N)=O)CC2)CCCCC1,15.3,"6.51 µM [falling, partial curve, poor fit]",–
CCOC(=O)N1CCN(C(=O)CSc2ccc(Cl)cc2)CC1,–,"5.17 µM [falling, single point]",–
COc1cc(C(C(=O)NC2CCCC2)N(C(=O)c2snc(C(N)=O)c2N)C2CCCC2)cc(OC)c1OC (stereo unspecified),25.6,–,–
CCOC(=O)c1c(C)nc2sc3c(=O)n(-c4ccc(C(C)=O)cc4)cnc3c2c1-c1ccc(Cl)cc1,-9.37,"6.51 µM [falling, single point]",–

# Single entries from the results shown:
# CC1CCCC(C(=O)O)N1C(=O)CCS (stereo unspecified) | AC50 [1]: 0.058 µM [rising, full curve, poor fit]
# Cc1ccc(CNC(=O)Cn2ccc3cc(S(=O)(=O)N4CCCCCC4)ccc32)cc1 | cell number change [%]: -3.44

# Remaining list, next part.

Structure (SMILES),cell number change [%],AC50 [1],AC50 [2]
O=C(CSc1nc2ccccc2c(=O)n1Cc1ccco1)c1ccccc1,-20.1,–,–
O=C1CSC(c2ccc(Cl)c(Cl)c2)N1c1nccs1 (stereo unspecified),23,"9.2 µM [rising, partial curve]",–
O=C(O)CCc1nc2cc(Cl)ccc2n(Cc2ccccc2)c1=O,–,"2.06 µM [falling, partial curve, poor fit]",–
CCOC(=O)c1ccc(-n2c(=O)[nH]c3ccccc3c2=O)cc1,69.8,–,"29.1 µM [rising, single point]"
O=C(Nc1ccc([N+](=O)[O-])cc1)c1ccc(Cn2cc([N+](=O)[O-])cn2)cc1,-32.5,"0.92 µM [falling, full curve]","11.6 µM [falling, single point]"
CCOc1ccc(Br)cc1S(=O)(=O)Nc1cccc(S(=O)(=O)N(C)C)c1,-51.7,"7.31 µM [falling, partial curve]","11.6 µM [falling, partial curve]"
Cc1ccc(-c2[nH][nH]c(=O)c(=O)c2N=Nc2ccccc2)cc1,40.2,"23.1 µM [rising, single point]","23.1 µM [rising, single point]"
O=C(O)C1CCN(C(=O)NC2CCCCC2)CC1,-4.13,–,–
CC(=O)Nc1ccc(C(=S)NCCCO)cc1,–,"6.51 µM [falling, single point]",–
CCOC(=O)c1sc(S(C)=O)c2c1CCc1conc1-2 (stereo unspecified),-58,"6.51 µM [falling, partial curve]","6.51 µM [falling, partial curve]"
O=C(N/N=C/c1ccc([N+](=O)[O-])s1)c1cccnc1,-26.3,"14.6 µM [falling, partial curve]",–
CCOC(=O)CNC(=O)c1ccc(C)cc1,-10.2,"20.6 µM [falling, partial curve]",–
Cc1ccc2[nH]c3c(=O)n(CC(=O)Nc4ccccc4N4CCN(C)CC4)ncc3c2c1,-14.6,–,"1.64 µM [rising, partial curve, poor fit]"
O=C(N/N=C/c1c[nH]c2ccccc12)C1CC1c1ccccc1 (stereo unspecified),-26.3,"16.4 µM [falling, single point]",–
CC(C)CC(NC(=O)C(COCc1ccccc1)NC(=O)OC(C)(C)C)C(=O)NN (stereo unspecified) (Boc-Ser(Bn)-Leu-NHNH2; configuration not given here),-9.61,"6.51 µM [falling, single point]","3.26 µM [falling, partial curve]"
CC(C)CCNC(=O)c1cc(-c2ccco2)nc2ccccc12,1.55,"0.13 µM [rising, full curve, poor fit]","0.116 µM [rising, full curve]"
C=CCOc1ccc(CN(C)c2ccc(S(=O)(=O)N3CCN(C)CC3)cc2[N+](=O)[O-])cc1,6.69,"14.6 µM [falling, single point]",–
COc1ccc(S(=O)(=O)N2CCC(C(=O)NCc3ccncc3)CC2)cc1Cl,22.4,"0.112 µM [falling, full curve, poor fit]",–
